# Source: publication PMC7326919
# The chains behind the UniProt entries cited, without tags or fusion partners. Residues count along the entry.
# UniProt Q9R0P9: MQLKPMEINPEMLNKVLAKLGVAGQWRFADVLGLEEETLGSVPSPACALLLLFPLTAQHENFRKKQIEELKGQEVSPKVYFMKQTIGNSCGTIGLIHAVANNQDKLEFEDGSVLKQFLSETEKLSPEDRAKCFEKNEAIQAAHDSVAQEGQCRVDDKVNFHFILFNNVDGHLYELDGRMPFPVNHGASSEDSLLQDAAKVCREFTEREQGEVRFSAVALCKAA
# UniProt P20029, residues 20-655: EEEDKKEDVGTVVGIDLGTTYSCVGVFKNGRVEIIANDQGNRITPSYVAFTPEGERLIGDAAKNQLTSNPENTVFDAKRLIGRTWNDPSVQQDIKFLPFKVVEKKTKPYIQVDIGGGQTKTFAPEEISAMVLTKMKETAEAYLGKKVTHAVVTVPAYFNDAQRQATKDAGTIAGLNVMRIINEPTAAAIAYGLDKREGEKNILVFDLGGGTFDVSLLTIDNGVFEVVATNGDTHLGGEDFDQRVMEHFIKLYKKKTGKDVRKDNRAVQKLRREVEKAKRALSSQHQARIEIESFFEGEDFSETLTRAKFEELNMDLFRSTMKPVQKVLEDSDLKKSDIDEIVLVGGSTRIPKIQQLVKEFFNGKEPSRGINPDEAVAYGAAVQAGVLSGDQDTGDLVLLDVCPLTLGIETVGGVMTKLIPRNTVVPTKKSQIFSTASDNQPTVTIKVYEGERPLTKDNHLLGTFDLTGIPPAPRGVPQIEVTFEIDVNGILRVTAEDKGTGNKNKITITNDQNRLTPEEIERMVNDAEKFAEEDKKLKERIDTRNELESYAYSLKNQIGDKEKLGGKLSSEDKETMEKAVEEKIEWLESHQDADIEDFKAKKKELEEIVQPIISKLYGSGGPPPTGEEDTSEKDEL
# Molecular target: Ubiquitin C-terminal hydrolase L1 (mouse (endogenous in cardiac fibroblasts of C57BL/6 mice)) (UniProt Q9R0P9)
# Test: affinity purification with mass spectrometry; IP of endogenous UCHL1 from lysate of TGF-β1-induced CFs (Pierce Classic Magnetic IP/Co-IP Kit, protein A/G magnetic beads, 4 °C), eluate on SDS-PAGE, gel lanes to Orbitrap Elite mass spectrometry; candidates with number of PSMs > 20
substance,measurement,value
glucose-regulated protein of 78 kDa (from UniProt P20029 20-655),binding,binds

# Results are given in words; binding and its absence hold for the method and conditions named. Binding seen in cells or lysates may run through a third protein. These calls come from enrichment with a bait or labelling near it, and not all partners need be listed.
